# Data published in PMC11214836, “ILF3 safeguards telomeres from aberrant homologous recombination as a telomeric R-loop reader”.
# By UniProt entry, the sequences of proteins in these tests, tags left out.
# UniProt O00571: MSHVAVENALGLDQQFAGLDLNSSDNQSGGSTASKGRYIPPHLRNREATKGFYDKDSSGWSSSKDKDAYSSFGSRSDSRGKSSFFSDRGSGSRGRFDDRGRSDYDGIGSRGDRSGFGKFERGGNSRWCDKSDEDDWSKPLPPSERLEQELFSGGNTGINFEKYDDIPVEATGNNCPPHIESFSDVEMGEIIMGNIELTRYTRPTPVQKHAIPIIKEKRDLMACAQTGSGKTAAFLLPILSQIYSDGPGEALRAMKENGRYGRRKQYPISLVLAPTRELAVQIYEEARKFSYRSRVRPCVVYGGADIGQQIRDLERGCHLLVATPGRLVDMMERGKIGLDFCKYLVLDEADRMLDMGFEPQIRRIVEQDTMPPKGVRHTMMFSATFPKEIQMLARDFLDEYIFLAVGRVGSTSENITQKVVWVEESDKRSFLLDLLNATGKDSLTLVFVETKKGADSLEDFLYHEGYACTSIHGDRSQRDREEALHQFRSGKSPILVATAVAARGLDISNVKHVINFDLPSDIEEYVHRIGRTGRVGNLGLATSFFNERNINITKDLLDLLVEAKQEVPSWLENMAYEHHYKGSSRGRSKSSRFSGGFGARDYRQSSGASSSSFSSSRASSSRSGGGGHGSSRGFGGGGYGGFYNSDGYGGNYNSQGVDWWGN
# T1: BioID-ILF3 (UniProt Q12906)
# T1 sequence: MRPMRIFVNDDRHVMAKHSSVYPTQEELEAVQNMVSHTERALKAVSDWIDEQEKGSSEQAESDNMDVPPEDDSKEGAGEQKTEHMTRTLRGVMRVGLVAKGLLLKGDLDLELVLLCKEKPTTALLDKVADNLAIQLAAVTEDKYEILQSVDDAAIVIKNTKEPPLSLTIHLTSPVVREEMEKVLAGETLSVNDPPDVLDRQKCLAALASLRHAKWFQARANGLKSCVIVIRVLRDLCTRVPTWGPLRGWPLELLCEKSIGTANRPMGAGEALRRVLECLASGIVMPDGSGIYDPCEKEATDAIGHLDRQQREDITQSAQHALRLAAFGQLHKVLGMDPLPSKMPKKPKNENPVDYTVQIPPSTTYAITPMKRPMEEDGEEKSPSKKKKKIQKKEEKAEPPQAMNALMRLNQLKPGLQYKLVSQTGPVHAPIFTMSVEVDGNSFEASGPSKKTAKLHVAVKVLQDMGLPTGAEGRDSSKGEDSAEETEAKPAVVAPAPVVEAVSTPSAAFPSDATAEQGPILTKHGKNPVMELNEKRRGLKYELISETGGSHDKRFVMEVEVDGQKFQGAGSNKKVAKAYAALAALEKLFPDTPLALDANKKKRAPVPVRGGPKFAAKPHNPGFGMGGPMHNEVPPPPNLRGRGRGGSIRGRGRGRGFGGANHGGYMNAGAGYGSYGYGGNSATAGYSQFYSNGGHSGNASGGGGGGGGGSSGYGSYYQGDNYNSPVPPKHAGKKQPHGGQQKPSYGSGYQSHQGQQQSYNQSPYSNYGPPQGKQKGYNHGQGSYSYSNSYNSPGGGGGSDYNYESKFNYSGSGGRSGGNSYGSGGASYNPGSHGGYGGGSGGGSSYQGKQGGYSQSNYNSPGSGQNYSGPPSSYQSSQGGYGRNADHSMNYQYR
# Molecular target: T1, BioID-ILF3
# Test: proximity labelling; BioID in U2OS cells stably expressing BioID-ILF3; 50 umol/L biotin for 16 h, RIPA lysis, streptavidin magnetic beads, LC-MS/MS; BioID-NLS as background control
molecule,measurement,value
DDX3X (from UniProt O00571 1-662) (enzyme),binding,binds
"DHX30 (enzyme, UniProt Q7L2E3 1-1194) MFSLDSFRKDRAQHRQRQCKLPPPRLPPMCVNPTPGGTISRASRDLLKEFPQPKNLLNSVIGRALGISHAKDKLVYVHTNGPKKKKVTLHIKWPKSVEVEGYGSKKIDAERQAAAAACQLFKGWGLLGPRNELFDAAKYRVLADRFGSPADSWWRPEPTMPPTSWRQLNPESIRPGGPGGLSRSLGREEEEDEEEELEEGTIDVTDFLSMTQQDSHAPLRDSRGSSFEMTDDDSAIRALTQFPLPKNLLAKVIQIATSSSTAKNLMQFHTVGTKTKLSTLTLLWPCPMTFVAKGRRKAEAENKAAALACKKLKSLGLVDRNNEPLTHAMYNLASLRELGETQRRPCTIQVPEPILRKIETFLNHYPVESSWIAPELRLQSDDILPLGKDSGPLSDPITGKPYVPLLEAEEVRLSQSLLELWRRRGPVWQEAPQLPVDPHRDTILNAIEQHPVVVISGDTGCGKTTRIPQLLLERYVTEGRGARCNVIITQPRRISAVSVAQRVSHELGPSLRRNVGFQVRLESKPPSRGGALLFCTVGILLRKLQSNPSLEGVSHVIVDEVHERDVNTDFLLILLKGLQRLNPALRLVLMSATGDNERFSRYFGGCPVIKVPGFMYPVKEHYLEDILAKLGKHQYLHRHRHHESEDECALDLDLVTDLVLHIDARGEPGGILCFLPGWQEIKGVQQRLQEALGMHESKYLILPVHSNIPMMDQKAIFQQPPVGVRKIVLATNIAETSITINDIVHVVDSGLHKEERYDLKTKVSCLETVWVSRANVIQRRGRAGRCQSGFAYHLFPRSRLEKMVPFQVPEILRTPLENLVLQAKIHMPEKTAVEFLSKAVDSPNIKAVDEAVILLQEIGVLDQREYLTTLGQRLAHISTDPRLAKAIVLAAIFRCLHPLLVVVSCLTRDPFSSSLQNRAEVDKVKALLSHDSGSDHLAFVRAVAGWEEVLRWQDRSSRENYLEENLLYAPSLRFIHGLIKQFSENIYEAFLVGKPSDCTLASAQCNEYSEEEELVKGVLMAGLYPNLIQVRQGKVTRQGKFKPNSVTYRTKSGNILLHKSTINREATRLRSRWLTYFMAVKSNGSVFVRDSSQVHPLAVLLLTDGDVHIRDDGRRATISLSDSDLLRLEGDSRTVRLLKELRRALGRMVERSLRSELAALPPSVQEEHGQLLALLAELLRGPCGSFDVRKTADD",binding,binds

# No constants are given. Whether binding was seen depends on the method and setting. In cells and extracts the contact can be indirect. Here binding means that the protein was enriched with, or labelled near, the bait; the list need not be complete.
